Laboratory results taken from the supplement of paper PMC7661543.
The effect of the compound repeats well; differences between the knockouts mostly do not.

Test system: MDA-MB-231
Test: relative cell number vs DMSO control (72 h) (% of DMSO); higher = less growth inhibition (more cells)
Method: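 QMAP-Seq: a pool of 5 breast cancer cell lines (ZR-75-1, SKBR3, HCC-38, MDA-MB-231, BT-20), each carrying 12 doxycycline-inducible Cas9 sgRNA perturbations (11 knockouts plus non-targeting sgNT), was treated with compounds for 72 h at four 10-fold doses (10 nM-10 uM or 1 nM-1 uM range). Barcodes were amplified and sequenced, and cell number was interpolated from 293T spike-in standard curves. The result is expressed as % of the median of DMSO wells. Two biological replicates.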

c1ccc2c(Oc3nc(Nc4ccc(N5CCOCC5)cc4)c4ncn(C5CCCCC5)c4n3)cccc2c1 [Purmorphamine]
Settings | relative cell number
sgRNA knockout: sgATF3, 10 nM | 92.9
sgRNA knockout: sgATF3, 100 nM | 96
sgRNA knockout: sgATF3, 1000 nM | 106
sgRNA knockout: sgATF3, 10000 nM | 59.3
sgRNA knockout: sgATF4, 10 nM | 66.8
sgRNA knockout: sgATF4, 100 nM | 76.4
sgRNA knockout: sgATF4, 1000 nM | 88.2
sgRNA knockout: sgATF4, 10000 nM | 63.3
sgRNA knockout: sgATF6, 10 nM | 115
sgRNA knockout: sgATF6, 100 nM | 78.7
sgRNA knockout: sgATF6, 1000 nM | 96.2
sgRNA knockout: sgATF6, 10000 nM | 61.3
sgRNA knockout: sgATG7, 10 nM | 106
sgRNA knockout: sgATG7, 100 nM | 83.4
sgRNA knockout: sgATG7, 1000 nM | 80.1
sgRNA knockout: sgATG7, 10000 nM | 66.1
sgRNA knockout: sgERN1, 10 nM | 76.5
sgRNA knockout: sgERN1, 100 nM | 88.03
sgRNA knockout: sgERN1, 1000 nM | 94.1
sgRNA knockout: sgERN1, 10000 nM | 59.5
sgRNA knockout: sgHSF1, 10 nM | 69.6
sgRNA knockout: sgHSF1, 100 nM | 98
sgRNA knockout: sgHSF1, 1000 nM | 79.8
sgRNA knockout: sgHSF1, 10000 nM | 46.4
sgRNA knockout: sgHSF2, 10 nM | 108.5
sgRNA knockout: sgHSF2, 100 nM | 75.4
sgRNA knockout: sgHSF2, 1000 nM | 76.6
sgRNA knockout: sgHSF2, 10000 nM | 76.3
sgRNA knockout: sgKEAP1, 10 nM | 105
sgRNA knockout: sgKEAP1, 100 nM | 89.1
sgRNA knockout: sgKEAP1, 1000 nM | 80.24
sgRNA knockout: sgKEAP1, 10000 nM | 70.2
sgRNA knockout: sgNFE2L2, 10 nM | 110
sgRNA knockout: sgNFE2L2, 100 nM | 77.2
sgRNA knockout: sgNFE2L2, 1000 nM | 86.8
sgRNA knockout: sgNFE2L2, 10000 nM | 59.1
sgRNA knockout: sgSLC35F2, 10 nM | 104
sgRNA knockout: sgSLC35F2, 100 nM | 89.8
sgRNA knockout: sgSLC35F2, 1000 nM | 106
sgRNA knockout: sgSLC35F2, 10000 nM | 65.3
sgRNA knockout: sgXBP1, 10 nM | 86.6
sgRNA knockout: sgXBP1, 100 nM | 102
sgRNA knockout: sgXBP1, 1000 nM | 92.1
sgRNA knockout: sgXBP1, 10000 nM | 71.74

CC(C)(C)c1ccc(S(=O)(=O)NCc2ccc(C(=O)Nc3cccnc3)cc2)cc1 [STF31]
Settings | relative cell number
sgRNA knockout: sgATF3, 10 nM | 101
sgRNA knockout: sgATF3, 100 nM | 91.7
sgRNA knockout: sgATF3, 1000 nM | 58.6
sgRNA knockout: sgATF3, 10000 nM | 23.03
sgRNA knockout: sgATF4, 10 nM | 106
sgRNA knockout: sgATF4, 100 nM | 107
sgRNA knockout: sgATF4, 1000 nM | 66.8
sgRNA knockout: sgATF4, 10000 nM | 39.9
sgRNA knockout: sgATF6, 10 nM | 128
sgRNA knockout: sgATF6, 100 nM | 86.2
sgRNA knockout: sgATF6, 1000 nM | 74.9
sgRNA knockout: sgATF6, 10000 nM | 39.1
sgRNA knockout: sgATG7, 10 nM | 111
sgRNA knockout: sgATG7, 100 nM | 87
sgRNA knockout: sgATG7, 1000 nM | 51.6
sgRNA knockout: sgATG7, 10000 nM | 31.2
sgRNA knockout: sgERN1, 10 nM | 103
sgRNA knockout: sgERN1, 100 nM | 81.5
sgRNA knockout: sgERN1, 1000 nM | 51.3
sgRNA knockout: sgERN1, 10000 nM | 32.4
sgRNA knockout: sgHSF1, 10 nM | 96.5
sgRNA knockout: sgHSF1, 100 nM | 89.3
sgRNA knockout: sgHSF1, 1000 nM | 49.7
sgRNA knockout: sgHSF1, 10000 nM | 31.1
sgRNA knockout: sgHSF2, 10 nM | 89
sgRNA knockout: sgHSF2, 100 nM | 83.9
sgRNA knockout: sgHSF2, 1000 nM | 60.5
sgRNA knockout: sgHSF2, 10000 nM | 34.9
sgRNA knockout: sgKEAP1, 10 nM | 89.1
sgRNA knockout: sgKEAP1, 100 nM | 96.5
sgRNA knockout: sgKEAP1, 1000 nM | 99
sgRNA knockout: sgKEAP1, 10000 nM | 35.4
sgRNA knockout: sgNFE2L2, 10 nM | 101
sgRNA knockout: sgNFE2L2, 100 nM | 93.6
sgRNA knockout: sgNFE2L2, 1000 nM | 58.3
sgRNA knockout: sgNFE2L2, 10000 nM | 41.4
sgRNA knockout: sgSLC35F2, 10 nM | 111
sgRNA knockout: sgSLC35F2, 100 nM | 75.2
sgRNA knockout: sgSLC35F2, 1000 nM | 46.3
sgRNA knockout: sgSLC35F2, 10000 nM | 36.7
sgRNA knockout: sgXBP1, 10 nM | 107
sgRNA knockout: sgXBP1, 100 nM | 94.5
sgRNA knockout: sgXBP1, 1000 nM | 71
sgRNA knockout: sgXBP1, 10000 nM | 31.4

CN1CCN(CCOc2cc(OC3CCOCC3)c3c(Nc4c(Cl)ccc5c4OCO5)ncnc3c2)CC1 [Saracatinib]
Settings | relative cell number
sgRNA knockout: sgATF3, 10 nM | 111
sgRNA knockout: sgATF3, 100 nM | 75.2
sgRNA knockout: sgATF3, 1000 nM | 78.2
sgRNA knockout: sgATF3, 10000 nM | 48.1
sgRNA knockout: sgATF4, 10 nM | 95
sgRNA knockout: sgATF4, 100 nM | 91
sgRNA knockout: sgATF4, 1000 nM | 69.9
sgRNA knockout: sgATF4, 10000 nM | 48.6
sgRNA knockout: sgATF6, 10 nM | 93
sgRNA knockout: sgATF6, 100 nM | 82.67
sgRNA knockout: sgATF6, 1000 nM | 59.3
sgRNA knockout: sgATF6, 10000 nM | 46.8
sgRNA knockout: sgATG7, 10 nM | 104
sgRNA knockout: sgATG7, 100 nM | 79.3
sgRNA knockout: sgATG7, 1000 nM | 61.4
sgRNA knockout: sgATG7, 10000 nM | 48.1
sgRNA knockout: sgERN1, 10 nM | 89.5
sgRNA knockout: sgERN1, 100 nM | 85.6
sgRNA knockout: sgERN1, 1000 nM | 63.5
sgRNA knockout: sgERN1, 10000 nM | 50.8
sgRNA knockout: sgHSF1, 10 nM | 85.7
sgRNA knockout: sgHSF1, 100 nM | 82.2
sgRNA knockout: sgHSF1, 1000 nM | 64.9
sgRNA knockout: sgHSF1, 10000 nM | 47.2
sgRNA knockout: sgHSF2, 10 nM | 87.3
sgRNA knockout: sgHSF2, 100 nM | 103
sgRNA knockout: sgHSF2, 1000 nM | 62.1
sgRNA knockout: sgHSF2, 10000 nM | 48.9
sgRNA knockout: sgKEAP1, 10 nM | 71.9
sgRNA knockout: sgKEAP1, 100 nM | 103
sgRNA knockout: sgKEAP1, 1000 nM | 81.5
sgRNA knockout: sgKEAP1, 10000 nM | 42.2
sgRNA knockout: sgNFE2L2, 10 nM | 77.6
sgRNA knockout: sgNFE2L2, 100 nM | 77.8
sgRNA knockout: sgNFE2L2, 1000 nM | 61.1
sgRNA knockout: sgNFE2L2, 10000 nM | 44.3
sgRNA knockout: sgSLC35F2, 10 nM | 78.2
sgRNA knockout: sgSLC35F2, 100 nM | 101
sgRNA knockout: sgSLC35F2, 1000 nM | 73
sgRNA knockout: sgSLC35F2, 10000 nM | 39.5
sgRNA knockout: sgXBP1, 10 nM | 86.6
sgRNA knockout: sgXBP1, 100 nM | 90.8
sgRNA knockout: sgXBP1, 1000 nM | 65.4
sgRNA knockout: sgXBP1, 10000 nM | 44
